# Test results published in patent publication US20260027209A1 (LEGEND BIOTECH IRELAND, published 2026).
# The chains behind the UniProt entries cited, without tags or fusion partners. Residues count along the entry.
# UniProt P51654, 25-554 limits assumed: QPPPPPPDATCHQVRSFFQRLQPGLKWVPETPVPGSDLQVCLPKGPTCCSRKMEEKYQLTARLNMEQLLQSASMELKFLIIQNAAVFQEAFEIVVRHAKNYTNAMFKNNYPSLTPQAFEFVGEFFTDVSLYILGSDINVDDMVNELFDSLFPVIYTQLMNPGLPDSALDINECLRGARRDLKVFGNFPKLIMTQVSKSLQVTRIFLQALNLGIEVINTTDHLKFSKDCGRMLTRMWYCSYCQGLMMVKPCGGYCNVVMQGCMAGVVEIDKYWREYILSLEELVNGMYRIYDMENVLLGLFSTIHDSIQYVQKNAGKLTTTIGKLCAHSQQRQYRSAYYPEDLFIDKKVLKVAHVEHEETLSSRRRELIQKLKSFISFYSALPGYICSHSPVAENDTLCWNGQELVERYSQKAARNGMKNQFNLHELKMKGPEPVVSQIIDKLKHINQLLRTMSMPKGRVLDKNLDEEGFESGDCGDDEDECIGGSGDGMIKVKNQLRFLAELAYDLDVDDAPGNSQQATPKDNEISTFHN
# T1: human Claudin-6 (human, UniProt P56747 1-220)
# T1 sequence (looked up): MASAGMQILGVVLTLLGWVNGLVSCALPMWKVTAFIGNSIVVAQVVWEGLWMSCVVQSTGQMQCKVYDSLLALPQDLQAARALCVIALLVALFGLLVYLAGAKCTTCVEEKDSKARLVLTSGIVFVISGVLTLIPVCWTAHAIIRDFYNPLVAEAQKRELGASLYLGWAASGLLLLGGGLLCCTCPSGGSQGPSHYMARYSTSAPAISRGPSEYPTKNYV
# B1: LCAR-CNBCAR2 (other)
# chain: DIVMTQSPLSLPVTPGEPASISCRSSQTIVHSNGNTYLEWYLQKPGQSPQLLIYKVSNRFSGVPDRFSGSGSGTDFTLKISRVEAEDVGVYYCFQVSHVPYTFGGGTKLEIKGSTSGSGKPGSGEGSTKGQVQLVQSGAEVKKPGASVKVSCKASGYTFTDYEMHWVRQATGQGLEWMGGIDPETGNTAYSQKFKGRVTMTRNTSISTAYMELSSLRSEDTAVYYCARYYSFAYWGQGTLVTVSSTSTTTPAPRPPTPAPTIASQPLSLRPEACRPAAGGAVHTRGLDFACDIYIWAPLAGTCGVLLLSLVITLYCKRGRKKLLYIFKQPFMRPVQTTQEEDGCSCRFPEEEEGGCELRVKFSRSADAPAYQQGQNQLYNELNLGRREEYDVLDKRRGRDPEMGGKPRRKNPQEGLYNELQKDKMAEAYSEIGMKGERRRGKGHDGLYQGLSTATKDTYDALHMQALPPR
# Key:
# human GPC3 = human GPC3 (human, UniProt P51654 25-554); experiment: cell-based or functional assay
# human Claudin-6 = molecular target: T1, human Claudin-6; experiment: cell-based or functional assay
binder,measurement,setting,value
B1,"Specific Cytotoxicity % on ES-2.huGPC3.Luc cells, E/T=4:1",human GPC3,89.4%
same,"Specific Cytotoxicity % on ES-2.huCLDN6.Luc cells, E/T=4:1",human Claudin-6,-19.7%
